Experimental data published in patent US20240408222A1 (VINCERX PHARMA GMBH, priority 2021, published 2024).

Test: general procedure: peptide synthesis; HATU
[1] = late stage modification step, TFA salt

Substance	conjugation yield (conjugation step)	final purity (method not given) (conjugation step) [% purity]	also measured
N-{2-[{2-[({4-[({(1S)-2-Carboxy-1-[3-({3-[(propylcarbamoyl)amino]benzene-1-sulfonyl}amino) phenyl]ethyl}carbamoyl)amino]phenyl}carbamoyl)(methyl)amino]ethyl}(methyl)amino]ethyl}-N-methylglycyl-L-asparaginyl-L-prolyl-N—[(R or S*)—{[(4R or S*)-15,19-difluoro-4-methyl-3,4-dihydro-2H,11H-12,16-(azeno)-10,6-(metheno)-1,5,11,13-benzodioxadiazacyclooctadecin-8-yl]methyl}(methyl)oxo-lambda^6-sulfanylidene]-L-valinamide	35%	100	
N-{2-[{2-[({4-[({(1R)-2-Carboxy-1-[3-({3-[(propylcarbamoyl)amino]benzene-1-sulfonyl}amino) phenyl]ethyl}carbamoyl)amino]phenyl}carbamoyl)(methyl)amino]ethyl}(methyl)amino]ethyl}-N-methylglycyl-L-asparaginyl-L-prolyl-N—	35%	100	
N-{2-[{2-[(2-{[N2,N6-bis(14-{4-[({(1S)-2-carboxy-1-[3-({3-[(propylcarbamoyl) amino]benzene-1-sulfonyl}amino)phenyl]ethyl}carbamoyl)amino]anilino}-14-oxo-4,7,10-trioxa-13-azatetradecanan-1-oyl)-L-lysyl]amino}ethyl)(methyl)amino]ethyl}(methyl) amino]ethyl}-N-methylglycyl-L-asparaginyl-L-prolyl-N—[(R*)—{[(4R*)-15,19-difluoro-4-methyl-3,4-dihydro-2H,11H-12,16-(azeno)-10,6-(metheno)-1,5,11,13-benzodioxadiazacyclooctadecin-8-yl]methyl}(methyl)oxo-lambda6-sulfanylidene]-L-valinamide	61% yield		final LC-MS purity (conjugation step): 100% purity
trifluoroacetic acid N-methyl-N-(2-{methyl[2-(methylamino)ethyl]amino}ethyl)glycyl-L-asparaginyl-L-prolyl-N—[(S)-{[16,20-difluoro-2,3,4,5-tetrahydro-12H-13,17-(azeno)-11,7-(metheno)-1,6,12,14-benzodioxadiazacyclononadecin-9-yl]methyl}(methyl)oxo-lambda^6-sulfanylidene]-L-valinamide (1/1)			crude purity (method not given) [1]: 96% purity; step yield [1]: 90%
N-{2-[{2-[{2-[({4-[({(1S)-2-carboxy-1-[3-({3-[(propylcarbamoyl)amino]benzene-1-sulfonyl}amino)phenyl]ethyl}carbamoyl)amino]phenyl}carbamoyl)amino]ethyl}(methyl)amino]ethyl}(methyl)amino]ethyl}-N-methylglycyl-L-asparaginyl-L-prolyl-N—	15% yield	100	
N-{2-[{2-[(tert-butoxycarbonyl)(methyl)amino]ethyl}(methyl)amino]ethyl}-N-methylglycyl-L-asparaginyl-L-prolyl-N—[(S)-{[16,20-difluoro-2,3,4,5-tetrahydro-12H-13,17-(azeno)-11,7-(metheno)-1,6,12,14-benzodioxadiazacyclononadecin-9-yl]methyl}(methyl)oxo-lambda^6-sulfanylidene]-L-valinamide			final purity (method not given) (coupling step): 96% purity; step yield (coupling step): 51%
N-{2-[{2-[({4-[({(1R)-2-Carboxy-1-[3-({3-[(propylcarbamoyl)amino]benzene-1-sulfonyl}amino) phenyl]ethyl} carbamoyl)amino]phenyl}carbamoyl)(methyl)amino]ethyl} (methyl)amino]ethyl}-N-methylglycyl-L-asparaginyl-L-prolyl-N—	94%	97	
N-{2-[{2-[({4-[({(1R)-2-Carboxy-1-[3-({3-[(propylcarbamoyl)amino] benzene-1-sulfonyl}amino) phenyl]ethyl} carbamoyl)amino] phenyl}carbamoyl)(methyl)amino] ethyl} (methyl)amino]ethyl}-N-methylglycyl-L-asparaginyl-L-prolyl-N—	30% yield	100	
